Source: PubChem BioAssay AID602254 (Broad Institute, 2012)
The whole screen tested about 1,000 compounds, of which fewer than 10 were called active.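 Rule for the calls: active = fitted half-maximal concentration no higher than twice the top valid tested dose, with signal falling; inconclusive = flat curve with 30 to 70% inhibition, or poor fit; inactive = the rest.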 This is one part of the list. Potency and affinity values are given separately.

Target: Golgi-associated PDZ and coiled-coil motif-containing protein (Homo sapiens) (UniProt Q9HD26)
Assay: blockers of CAL PDZ–TMR peptide complex – biochemical, fluorescence polarization, untagged CAL PDZ, cherry-pick, set 2, dose response (AID 602254);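 note: 0% = DMSO neutral control and -100% = unlabeled peptide PRC23 positive control; more negative means stronger blocking of peptide binding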
Settings: Purified CAL PDZ; at 60 µM (top of the series)

Activity change, negative = inhibition, inactive:
CN(C)CCC(C(=O)c1ccccc1)c1ccccn1 (stereo unspecified) -1.68%
CC1CCN(Cc2nnnn2CCCC(=O)NCCc2cnn(C)c2)CC1 -1.37%
O=C(NC(N1CCOCC1)C(Cl)(Cl)Cl)c1ccc(F)cc1 (stereo unspecified) -0.486%
COc1ccc(NC(=O)c2cccc(S(=O)(=O)N3CCCC3)c2)cc1OC 8.7%
CCOC(=O)C1=C(C)C/C(=N\NC(=O)c2ccccc2O)CC1 3.3%
COc1ccc(CN2CCC(n3nccc3NC(=O)C3CC3)CC2)c(OC)c1OC -0.491%
COc1cc(NC(=S)N2CCN(S(=O)(=O)c3ccc(F)cc3)CC2)cc(OC)c1 -2.82%
CC(C)c1ccc(N(CC(=O)N2CCOCC2)S(C)(=O)=O)cc1 -0.358%
Cc1cc(C(=O)NNC(=O)c2cccc(C(F)(F)F)c2)no1 -0.975%
Cc1ccc(CNc2ncnc3[nH]ncc23)cc1 1.25%
O=C(Nc1cccc(-n2cnnn2)c1)c1ccc(OC(F)(F)F)cc1 2.59%
Cc1ccc(/C(=N\S(=O)(=O)c2ccc(Br)cc2)Nc2ccccc2C)cc1 -0.968%
Cc1cc(C)c(C#N)c(N2CCC(C(N)=O)CC2)n1 -1.3%
COC(=O)c1sccc1NC(=S)N1CCN(C)CC1 -0.795%
Cc1onc(-c2c(F)cccc2Cl)c1C(=O)NCc1ccccn1 1.76%
O=C(O)CCN(Cc1ccccc1)S(=O)(=O)c1ccccc1Cl -0.547%
COc1cccc(C(=O)C2CCCN(C(=O)c3ccccn3)C2)c1 (stereo unspecified) -4.12%
CC(=O)NC(Cc1cccc(C)c1)C(=O)NC1CCN(S(=O)(=O)c2ccccc2)CC1 (stereo unspecified) 8.23%
O=C(CCn1cnnn1)Nc1ccc(Cl)cc1Cl -1.9%
Cc1ccc(O)c(-c2cc(-c3cccc(Br)c3)n[nH]2)c1 0.711%
COc1cc(OC)cc(C(=O)NCC(=O)N2CCCCCCC2)c1 -2.43%
COc1cccc(C2(O)CCN(C(=O)C(C)C)CC2)c1 2.79%
CC(C)CCC(CCN1CCCC1)c1ccc2c(c1)OCO2 (stereo unspecified) 0.896%
O=C1NC2(CCCCCC2)C(=O)N1Cc1ccccc1Br -1.33%
Cc1cccc(NC(=O)CCNC(=O)c2ccc(Br)cc2)c1 -2.95%
Cc1ccc(C(=O)OC(C)CN2CCOCC2)cc1 (stereo unspecified) -3.25%
Cc1ccc(C(=O)N2CCC(N3CCC(C(=O)N4CCOCC4)CC3)CC2)cc1C -2.57%
CC(=O)c1c(C)[nH]c(C(=O)OCC(=O)NCCC(C)C)c1C -1.17%
COc1cc(C(=O)N2CCN(S(=O)(=O)c3cccs3)CC2)cc(OC)c1C 1.46%
COc1ccc(C(=O)NCC(=O)OCC(=O)Nc2sccc2C#N)cc1OC 0.376%
CCOCCCNC(=O)CCCOc1ccccc1 -2.16%
COC(=O)Cc1ccc(NC(=S)Nc2cccc(C)n2)cc1 2.44%
Cc1cccc(NC(=S)N2CCN(C(=O)C3CCCO3)CC2)c1 (stereo unspecified) 0.092%
CN(C(=O)c1cc2ccccc2oc1=O)C1(C)CCS(=O)(=O)C1 (stereo unspecified) -0.159%
CCC(CC)C(=O)NCCc1ccc(OC)c(OC)c1 -1.17%
COc1ccc(C2(C)NC(=O)N(CC(=O)c3cc(C)n(C4CC4)c3C)C2=O)cc1OC (stereo unspecified) -2.89%
Cc1[nH]c2c(C(=O)N3CCCC(CCC(=O)NCc4ccccc4F)C3)cccc2c1C (stereo unspecified) -0.046%
CC(=O)OCC12COC3c4ccccc4OC(C)(CC1C)C3C2C (stereo unspecified) -2.09%
COc1ccc(-n2nc(C(=O)NCC(=O)N3CCC(C)CC3)c3ccccc3c2=O)cc1 -2.27%
O=C(c1cccc(C(F)(F)F)c1)C1CCCN(C(=O)CCn2cnnn2)C1 (stereo unspecified) 0.256%
COc1cccc(CN2CC(C(=O)NCCCc3ccc(C)cc3)CCC2=O)c1 (stereo unspecified) 0.591%
CCOC(=O)Cn1c(=O)oc2cc(S(=O)(=O)N(C)Cc3ccccc3)ccc21 -0.806%
C=CCCC1CN(CCCC)S(=O)(=O)c2c(F)cccc2O1 (stereo unspecified) -0.415%
CCCNC(=O)CCc1c(C)nc2nc(-c3cc(OC)cc(OC)c3)nn2c1C -1.96%
Cc1ccc(C(C)C)c(OC/C(O)=C(\C#N)c2nc3ccccc3[nH]2)c1 -1.42%
Cc1ccc(N2CCN(C(=S)Nc3ccccc3)CC2)cc1 -9.08%
Cc1cc(C)nc(CCNC(=O)CC2C(=O)NCCN2Cc2ccc(F)cc2Cl)n1 (stereo unspecified) -0.364%
Cc1ccccc1C(=O)NN1CCOCC1 1.4%
O=C(Nc1cccc(S(=O)(=O)N2CCOCC2)c1)c1ccccn1 -1.12%
CCc1ccc(CN(C)C(C)C(=O)NCc2ccccc2)cc1 (stereo unspecified) 0.258%
O=C(O)c1c(-c2ccc(Cl)cc2)cn2ccccc12 -0.658%
CCN1CCN(C(c2cc(OC)ccc2OC)c2nnnn2Cc2ccccc2)CC1 (stereo unspecified) -4.93%
O=C(CN(Cc1ccccc1)S(=O)(=O)c1ccc(F)cc1)NCCC1=CCCCC1 1.49%
O=C(c1cnn(C(=O)CN2CCCC2=O)c1)c1ccccc1O 3.88%
NS(=O)(=O)c1ccc2nc(NC(=O)c3ccc4c(c3)OCCO4)sc2c1 11.1%
Cc1c(Cl)cccc1NC(=S)N(CCN(C)C)C(C)c1ccccn1 (stereo unspecified) -8.05%
CN(CC1CCCO1)S(=O)(=O)c1ccc(C(=O)N2CCN(c3ccccc3)CC2)cc1 (stereo unspecified) -0.495%
CC(NC(=O)CCC(=O)NCc1ccc(F)cc1)c1ccccc1 (stereo unspecified) -1.48%
COc1cc(SC)ccc1C(=O)NC1CCCCC1 -7.54%
CC(C)(Oc1ccc(Cl)cc1)C(=O)NCc1ccc(S(N)(=O)=O)cc1 -1.4%
CN(C(=O)c1cccc(NC(=O)c2ccccc2)c1)C1CCCCC1 1.36%
COc1ccc(Nc2nc3ccccc3nc2NS(=O)(=O)c2cccs2)cc1 -1.62%
CCCn1nnc(NC(=O)c2ccc3c(c2)OCO3)n1 2.04%
CCCCN1CC(COC)Oc2cccc(F)c2S1(=O)=O (stereo unspecified) 0.529%
Cc1cc(Nc2ccccc2Cl)nc(-c2ccccc2O)n1 1.86%
CC(C)CNC(=S)NC1CCCC1 0.758%
Cc1ccc(-c2nc(N)n(C(=O)c3cccs3)n2)cc1 -1.07%
CC(C)(C)c1cc(C(=O)NNc2cccc(Cl)c2)n(Cc2ccccc2)n1 -0.821%
COc1ccc(NS(=O)(=O)c2cc(NC(=O)Cc3n[nH]c(=O)c4ccccc34)ccc2OC)cc1 2.99%
O=C(O)Cn1c(-c2ccccc2)cc2ccccc21 -5.11%
COc1ccc(OCC(=O)Nc2nc3c(s2)CCCC3)cc1 4.2%
Cc1nc2c3cc(Cl)ccc3n(CCN3CCOCC3)c2s1 -0.504%
O=C1OC(COc2ccc(Br)cc2)CN1c1ccccc1 (stereo unspecified) -1.12%
CCN(C(=O)CN1C(=O)/C(=C/c2ccccc2)SC1=S)C1CCS(=O)(=O)C1 (stereo unspecified) 2.96%
COc1ccc(-c2noc(-c3ccccc3C(=O)NCC3CCCO3)n2)cc1 (stereo unspecified) -0.781%
O=C(NC1CCCCC1)N1CCN(c2nc(-c3ccccc3)cs2)CC1 -3.39%
CCOC(=O)C1(CCCc2ccccc2)CCN(Cc2cnn(C)c2)CC1 0.665%
Cc1ccc(S(=O)(=O)Nc2c(C)n(C)n(-c3ccccc3)c2=O)cc1 -1.36%
COc1ccc(C(=O)Nc2ccc(S(=O)(=O)Nc3nccc(C)n3)cc2)cc1OC 2.45%
O=C(Oc1ccccc1)N1CCOCC1 0.207%
COc1ccc(Nc2ncc(C(=O)N3CCC(C(N)=O)CC3)c3ccccc23)cc1 0.212%
CC1CCC(NC(=O)c2nn(C)c3c2CSc2ccccc2-3)CC1 (stereo unspecified) -0.08%
COc1ccc(CCNc2nc(-c3ccccn3)cs2)cc1OC -0.104%
Cc1ccc(OCC(=O)Nc2ccc(-c3nc4ncccc4o3)cc2)cc1 1.17%
CCc1ccc2nc(N(CCN(C)C)C(=O)c3ccc4ccccc4c3)sc2c1 -3.83%
Cc1ccc(NC(=O)c2c(-c3ccccc3)noc2C)nc1 -14.1%
CCN(C(=O)CN1C(=O)/C(=C/c2ccccc2F)SC1=S)C1CCS(=O)(=O)C1 (stereo unspecified) -1.37%
CCOC(=O)C(/C=N/c1cc(C)nn1-c1ccccc1)=C(\C)O 3.31%
O=C(COc1ccc(Cl)cc1Cl)Nc1ccc(CN2CCOCC2)cc1 1.64%
COC(=O)c1cc(-c2ccccc2)sc1NC(=O)CN1C(=O)c2ccccc2C1=O -1.65%
CC(=O)N1CCc2cc(S(=O)(=O)NCC(=O)NCc3ccc(F)cc3)ccc21 1.04%
N#CCCN1CCN(S(=O)(=O)c2ccc(S(=O)(=O)NC3CCCCC3)cc2)CC1 -0.226%
CN(c1ccc(OCC(=O)N2CCC(C(N)=O)CC2)cc1)S(=O)(=O)c1cccs1 -3.85%
O=C(COc1ccc2c(c1)OCO2)Nc1nccs1 1.01%
CNC(=O)c1cc2cc(OC)ccc2n1CCN(C)C 1.02%
Cc1ncc(CN2CCN(C3CCCC3)C(CCO)C2)s1 (stereo unspecified) -4.61%

Structural class, the entries above with a CF3 group (3)
Activity change, negative = inhibition, inactive:
Cc1cc(C(=O)NNC(=O)c2cccc(C(F)(F)F)c2)no1 -0.975%
O=C(Nc1cccc(-n2cnnn2)c1)c1ccc(OC(F)(F)F)cc1 2.59%
O=C(c1cccc(C(F)(F)F)c1)C1CCCN(C(=O)CCn2cnnn2)C1 (stereo unspecified) 0.256%
